Experiment [1] concerns the target T1, integrin β3 (ITGB3) (mouse (endogenous in primary astrocytes and spinal cord)) (UniProt O54890).
T1 sequence: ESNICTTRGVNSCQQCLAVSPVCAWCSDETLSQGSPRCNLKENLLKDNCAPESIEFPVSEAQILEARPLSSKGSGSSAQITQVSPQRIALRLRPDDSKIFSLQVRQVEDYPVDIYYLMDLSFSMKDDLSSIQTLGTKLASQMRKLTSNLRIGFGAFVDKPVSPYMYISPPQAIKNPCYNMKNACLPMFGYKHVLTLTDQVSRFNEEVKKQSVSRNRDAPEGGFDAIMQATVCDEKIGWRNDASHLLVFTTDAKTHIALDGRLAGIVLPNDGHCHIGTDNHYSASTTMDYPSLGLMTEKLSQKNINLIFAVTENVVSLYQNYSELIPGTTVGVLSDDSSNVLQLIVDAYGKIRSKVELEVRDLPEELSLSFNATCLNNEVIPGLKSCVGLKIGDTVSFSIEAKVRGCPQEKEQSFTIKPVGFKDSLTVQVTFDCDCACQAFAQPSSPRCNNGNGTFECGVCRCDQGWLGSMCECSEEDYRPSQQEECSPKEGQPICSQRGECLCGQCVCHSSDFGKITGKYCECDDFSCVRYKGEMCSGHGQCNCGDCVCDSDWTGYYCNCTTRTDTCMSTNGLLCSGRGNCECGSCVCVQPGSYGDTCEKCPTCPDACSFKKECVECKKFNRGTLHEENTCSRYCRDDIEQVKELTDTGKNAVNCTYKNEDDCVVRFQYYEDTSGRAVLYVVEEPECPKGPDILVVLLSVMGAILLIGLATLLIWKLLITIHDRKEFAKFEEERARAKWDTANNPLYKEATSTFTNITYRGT
Kind of experiment: co-IP; total protein lysate of primary mouse astrocytes; IP with antibodies against ITGB3 or NF-κB-P65 or IgG negative control, 4 °C overnight, Protein A/G magnetic beads, PBST washes, Western blot; cells untreated or treated for 4 hours with hsCtrl-IgG, hsAQP4-IgG, MFGE8, or MFGE8 with Cilengitide. (In general: A western blot detects proteins with antibodies after separation by electrophoresis.)

Chains of the proteins cited; added tags and fusions are not shown.
UniProt Q04207: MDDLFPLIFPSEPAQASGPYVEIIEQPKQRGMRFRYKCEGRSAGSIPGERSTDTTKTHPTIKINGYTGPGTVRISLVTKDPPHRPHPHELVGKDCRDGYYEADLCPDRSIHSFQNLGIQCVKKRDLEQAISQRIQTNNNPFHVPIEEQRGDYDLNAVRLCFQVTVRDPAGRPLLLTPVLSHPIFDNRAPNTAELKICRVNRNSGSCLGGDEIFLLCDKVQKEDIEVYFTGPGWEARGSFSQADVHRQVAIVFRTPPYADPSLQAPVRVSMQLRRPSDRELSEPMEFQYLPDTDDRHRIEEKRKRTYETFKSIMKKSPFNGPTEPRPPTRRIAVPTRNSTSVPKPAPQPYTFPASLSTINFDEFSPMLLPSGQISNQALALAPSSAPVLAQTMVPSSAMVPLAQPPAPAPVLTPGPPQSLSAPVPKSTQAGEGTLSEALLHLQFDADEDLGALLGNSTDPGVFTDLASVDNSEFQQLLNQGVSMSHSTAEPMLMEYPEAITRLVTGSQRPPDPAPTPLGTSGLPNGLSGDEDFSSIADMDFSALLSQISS

In experiment [2] the target is T1, integrin β3 (ITGB3) (mouse (endogenous in primary astrocytes and spinal cord)). The experiment in a line: co-IP; total protein lysate of mouse spinal cord tissue (NMO model mice, in vivo treatment groups); IP with antibodies against ITGB3 or NF-κB-P65 or IgG negative control, 4 °C overnight, Protein A/G magnetic beads, PBST washes, Western blot.

In PMC10798960 one finds binding data, which are given here for one substance.

No constants are given. Whether binding was seen depends on the method and setting. Binding seen in cells or lysates may run through a third protein. Some entries that bind do so weakly or less than the wild type.

On to NF-κB-P65 (from UniProt Q04207 1-549), for which the binding result in experiment [1] and in experiment [2] was “binds” in each case.
